This is one part of the list. Repeats are few or missing, and single values can be far off.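 Imaging used 1,536-well plates; nuclei positive for cleaved PARP by antibody were divided by total DNA-stained nuclei to yield the apoptosis fraction. Doses for screening kept most cells viable, and cell lines differ markedly in resting and induced cleaved-PARP levels.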
Legend:
Assay in all cases: cleaved PARP positive nuclei fraction relative to DMSO control; melanoma cells; higher = more apoptosis
Details in all cases: library dose: low library concentration; 72 h
501Mel = system: 501Mel
A101D = system: A101D
A2058 = system: A2058
A375 = system: A375
C32 = system: C32
CBRC008 = system: CBRC008 (line from a melanoma biopsy)
CBRC014 = system: CBRC014 (line from a melanoma biopsy)
CBRC016 = system: CBRC016 (line from a melanoma biopsy)
CBRC017 = system: CBRC017 (line from a melanoma biopsy)
CBRC034 = system: CBRC034 (line from a melanoma biopsy)
COLO792 = system: COLO792
COLO800 = system: COLO800
COLO829 = system: COLO829
G361 = system: G361
IPC-298 = system: IPC-298
IST-MEL1 = system: IST-MEL1
LB2518-MEL = system: LB2518-MEL
LOXIMVI = system: LOXIMVI
MEL-HO = system: MEL-HO

| Compound | cleaved PARP positive nuclei fraction (501Mel) [%] | cleaved PARP positive nuclei fraction (A101D) [%] | cleaved PARP positive nuclei fraction (A2058) [%] | cleaved PARP positive nuclei fraction (A375) [%] | cleaved PARP positive nuclei fraction (C32) [%] | cleaved PARP positive nuclei fraction (CBRC008) [%] | cleaved PARP positive nuclei fraction (CBRC014) [%] | cleaved PARP positive nuclei fraction (CBRC016) [%] | cleaved PARP positive nuclei fraction (CBRC017) [%] | cleaved PARP positive nuclei fraction (CBRC034) [%] | cleaved PARP positive nuclei fraction (COLO792) [%] | cleaved PARP positive nuclei fraction (COLO800) [%] | cleaved PARP positive nuclei fraction (COLO829) [%] | cleaved PARP positive nuclei fraction (G361) [%] | cleaved PARP positive nuclei fraction (IPC-298) [%] | cleaved PARP positive nuclei fraction (IST-MEL1) [%] | cleaved PARP positive nuclei fraction (LB2518-MEL) [%] | cleaved PARP positive nuclei fraction (LOXIMVI) [%] | cleaved PARP positive nuclei fraction (MEL-HO) [%] |
| --- | --- | --- | --- | --- | --- | --- | --- | --- | --- | --- | --- | --- | --- | --- | --- | --- | --- | --- | --- |
| O=C(O)c1ccc2c(c1)nc(Nc1cccc(Cl)c1)c1ccncc12 + Clc1ccc(Nc2nnc(Cc3ccncc3)c3ccccc23)cc1 [vatalanib] (first compound 0.4 µM, partner dose 2 µM) | 98.3 | 41.4 | 185 | 164 | 77.1 | 147 | 128 | 100 | 150 | 155 | 182 | 57.2 | 251 | 18.2 | 133 | 94.4 | 97.6 | 156 | 94 |
| Cc1cc(Nc2cc(N3CCN(C)CC3)nc(/C=C/c3ccccc3)n2)n[nH]1 + C=CCNC1=C2C[C@@H](C)C[C@H](OC)[C@H](O)[C@@H](C)/C=C(\C)[C@H](OC(N)=O)[C@@H](OC)/C=C\C=C(/C)C(=O)NC(=CC1=O)C2=O [Tanespimycin] (first compound 0.04 µM, partner dose 0.002 µM) | 88.8 | 98.9 | 157 | 105 | 88.4 | 62 | 93.6 | 150 | 125 | 64.5 | 127 | 138 | 18 | 155 | 28.3 | 62.6 | 102 | 462 | 80.8 |
| CN1CCN(c2ccc3nc(-c4c(N)c5c(F)cccc5[nH]c4=O)[nH]c3c2)CC1 [Dovitinib] + COCC[n+]1c2c(n(Cc3cnccn3)c1C)C(=O)c1ccccc1C2=O [YM155] (first compound 0.1 µM, partner dose 0.0004 µM) | 87.7 | 294 | 148 | 194 | 71.2 | 91.5 | 87.9 | 44 | 129 | 79.5 | 118 | 176 | 93.6 | 18.9 | 46.1 | 185 | 135 | 102 | 148 |
| Cn1c(=O)n(-c2ccc(C(C)(C)C#N)cc2)c2c3cc(-c4cnc5ccccc5c4)ccc3ncc21 + CO[C@H]1C[C@@H]2CC[C@@H](C)[C@@](O)(O2)C(=O)C(=O)N2CCCC[C@H]2C(=O)O[C@H]([C@H](C)C[C@@H]2CC[C@@H](OCCO)[C@H](OC)C2)CC(=O)[C@H](C)/C=C(\C)[C@@H](O)[C@@H](OC)C(=O)[C@H](C)C[C@H](C)/C=C/C=C/C=C/1C [everolimus] (first compound 0.004 µM, partner dose 0.02 µM) | 309 | 142 | 551 | 2890 | 310 | 294 | 90.5 | 99.9 | 190 | 106 | 198 | 122 | 143 | 219 | 171 | 159 | 167 | 85.5 | 108 |
| CNC(=O)c1cc(Oc2ccc(NC(=O)Nc3ccc(Cl)c(C(F)(F)F)c3)cc2)ccn1 [sorafenib] + C#Cc1cccc(Nc2ncnc3cc(OCCOC)c(OCCOC)cc23)c1 [erlotinib] (first compound 0.4 µM, partner dose 0.8 µM) | 62.9 | 171 | 102 | 122 | 90.8 | 167 | 93.4 | 18.2 | 78.3 | 74.1 | 107 | 102 | 38.7 | 85.8 | 193 | 186 | 87.5 | 54.1 | 120 |
| Nc1ccn([C@@H]2O[C@H](CO)[C@@H](O)C2(F)F)c(=O)n1 [gemcitabine] + Cn1c(Nc2ccc(C(F)(F)F)cc2)nc2cc(Oc3ccnc(-c4ncc(C(F)(F)F)[nH]4)c3)ccc21 [CHIR265] (first compound 0.0004 µM, partner dose 0.08 µM) | 111 | 139 | 259 | 117 | 81.7 | 272 | 175 | 241 | 112 | 140 | 156 | 62.4 | 100 | 201 | 219 | 155 | 326 | 68.7 | 85.4 |
| Cc1cc(Nc2cc(N3CCN(C)CC3)nc(/C=C/c3ccccc3)n2)n[nH]1 + CS(=O)(=O)CCNCc1ccc(-c2ccc3ncnc(Nc4ccc(OCc5cccc(F)c5)c(Cl)c4)c3c2)o1 [lapatinib] (first compound 0.04 µM, partner dose 0.8 µM) | 158 | 287 | 51.6 | 96.5 | 71.8 | 74.1 | 100 | 65.5 | 194 | 64.6 | 65.6 | 165 | 122 | 78.6 | 178 | 84.9 | 84.1 | 105 | 138 |
| CO[C@H]1C[C@@H]2CC[C@@H](C)[C@@](O)(O2)C(=O)C(=O)N2CCCC[C@H]2C(=O)O[C@H]([C@H](C)C[C@@H]2CC[C@@H](OCCO)[C@H](OC)C2)CC(=O)[C@H](C)/C=C(\C)[C@@H](O)[C@@H](OC)C(=O)[C@H](C)C[C@H](C)/C=C/C=C/C=C/1C [everolimus] + C#Cc1cccc(Nc2ncnc3cc(OCCOC)c(OCCOC)cc23)c1 [erlotinib] (first compound 0.02 µM, partner dose 0.8 µM) | 2180 | 57.8 | 77.3 | 843 | 84.2 | 312 | 106 | 68.6 | 117 | 48 | 50.5 | 64.3 | 108 | 147 | 126 | 116 | 35.3 | 101 | 97.4 |
| O=C(O)[C@@H]1[O][Sb](=[O])([O][Sb]2(=[O])[O][C@H]([C@H](O)CO)[C@H](O)[C@H](C(=O)O)[O]2)[O][C@H]([C@H](O)CO)[C@@H]1O (some centres undefined) [stibogluconate] + CS(=O)(=O)CCNCc1ccc(-c2ccc3ncnc(Nc4ccc(OCc5cccc(F)c5)c(Cl)c4)c3c2)o1 [lapatinib] (first compound 2 µM, partner dose 0.8 µM) | 77 | 63.8 | 111 | 119 | 68.5 | 107 | 104 | 28.8 | 90.1 | 110 | 137 | 58.1 | 35.7 | 132 | 44.1 | 114 | 102 | 131 | 157 |
| CO[C@H]1C[C@@H]2CC[C@@H](C)[C@@](O)(O2)C(=O)C(=O)N2CCCC[C@H]2C(=O)O[C@H]([C@H](C)C[C@@H]2CC[C@@H](OCCO)[C@H](OC)C2)CC(=O)[C@H](C)/C=C(\C)[C@@H](O)[C@@H](OC)C(=O)[C@H](C)C[C@H](C)/C=C/C=C/C=C/1C [everolimus] + O=C(O)c1ccc2c(c1)nc(Nc1cccc(Cl)c1)c1ccncc12 [CX4945] (first compound 0.02 µM, partner dose 0.4 µM) | 820 | 106 | 61 | 453 | 90.8 | 215 | 167 | 162 | 203 | 87.4 | 268 | 127 | 164 | 139 | 136 | 93 | 123 | 51.1 | 68 |
| Cc1cc(Nc2cc(N3CCN(C)CC3)nc(/C=C/c3ccccc3)n2)n[nH]1 + CNC(=O)c1cc(Oc2ccc(NC(=O)Nc3ccc(Cl)c(C(F)(F)F)c3)cc2)ccn1 [sorafenib] (first compound 0.04 µM, partner dose 0.4 µM) | 51.2 | 55.6 | 68.4 | 234 | 21000 | 46.4 | 103 | 50 | 102 | 78.9 | 83.6 | 92.2 | 136 | 146 | 286 | 124 | 155 | 108 | 118 |
